In patent US20120190868A1, “SUBSTITUTED BENZOCHALCOGENOACENE COMPOUND, THIN FILM COMPRISING THE COMPOUND, AND ORGANIC SEMICONDUCTOR DEVICE INCLUDING THE THIN FILM” (NATIONAL UNIVERSITY CORPORATION NAGOYA UNIVERSITY, priority 2009, published 2012):

Columns and labels:
[1] = Electric performances of organic transistor having thin film formed by vacuum deposition method; details: for saturated field-effect mobility of the carrier (carrier mobility): thin film by vacuum deposition per Example 3 (FIG. 1 device), measured in vacuum, compound [5]: substrate temperature 60° C.; for on/off ratio (ratio of drain currents at gate voltages of 0 V and −50 V): drain voltage Vd −50 V
[2] = Electric performances of organic transistor having thin film formed by applying and film-forming process (spin coat)
[3] = thin film by vacuum deposition per Example 3
[4] = vacuum deposition, substrate temperature 80° C. (Example 8), Vd −40V, Vg 20 to −40V

| Compound | saturated field-effect mobility of the carrier (carrier mobility) [1] | on/off ratio (ratio of drain currents at gate voltages of 0 V and −50 V) [1, 3] | transistor type ([1]; thin film by vacuum deposition per Example 3, minus drain current increased with applied minus gate voltage) | field-effect mobility of the carrier (carrier mobility) ([2]; thin film spin-coated from 0.5 wt % tetrahydrofuran solution, kept at 80° C. for 30 minutes, FIG. 2 device (Example 6)) [cm^2/Vs] | on/off ratio ([2]; thin film spin-coated from 0.5 wt % tetrahydrofuran solution, FIG. 2 device (Example 6)) | field-effect mobility (carrier mobility) [1, 4] [cm^2/Vs] | on/off ratio [1, 4] | field-effect mobility (carrier mobility) ([2]; spin coating of 0.5 wt % dichlorobenzene solution heated at 100° C., dried at 120° C. for 30 minutes, Vd −40V, Vg 20 to −40V) [cm^2/Vs] | on/off ratio ([2]; spin coating of 0.5 wt % dichlorobenzene solution heated at 100° C., Vd −40V, Vg 20 to −40V) |
| --- | --- | --- | --- | --- | --- | --- | --- | --- | --- |
| COc1ccc2sc3c(sc4c5cc(OC)ccc5sc43)c2c1 [Compound C-1, reference compound] | 10^−5 cm^2/Vs | 10^3 |  |  |  |  |  |  |  |
| CCCCCCc1ccc2c(c1)sc1c2sc2c3ccc(CCCCCC)cc3sc21 [[5]] | 1.6 cm^2/Vs | 10^7 | p-type organic transistor | 0.3 | 10^7 |  |  |  |  |
| CCCCCCCCCCCCc1ccc2c(c1)sc1c2sc2c3ccc(CCCCCCCCCCCC)cc3sc21 [[14]] |  |  |  |  |  | 0.4 | 10^7 | 0.5 | 10^7 |
